In patent US20140141003A1 (Bayer, published 2014):
These are yes or no findings as the source states them, for the method shown. Some binding calls cover weakened binding; strength is not graded here.

Target: T1, rhesus monkey PRLR expressed on cells (rhesus monkey, UniProt F7HIU9 25-619)
T1 sequence: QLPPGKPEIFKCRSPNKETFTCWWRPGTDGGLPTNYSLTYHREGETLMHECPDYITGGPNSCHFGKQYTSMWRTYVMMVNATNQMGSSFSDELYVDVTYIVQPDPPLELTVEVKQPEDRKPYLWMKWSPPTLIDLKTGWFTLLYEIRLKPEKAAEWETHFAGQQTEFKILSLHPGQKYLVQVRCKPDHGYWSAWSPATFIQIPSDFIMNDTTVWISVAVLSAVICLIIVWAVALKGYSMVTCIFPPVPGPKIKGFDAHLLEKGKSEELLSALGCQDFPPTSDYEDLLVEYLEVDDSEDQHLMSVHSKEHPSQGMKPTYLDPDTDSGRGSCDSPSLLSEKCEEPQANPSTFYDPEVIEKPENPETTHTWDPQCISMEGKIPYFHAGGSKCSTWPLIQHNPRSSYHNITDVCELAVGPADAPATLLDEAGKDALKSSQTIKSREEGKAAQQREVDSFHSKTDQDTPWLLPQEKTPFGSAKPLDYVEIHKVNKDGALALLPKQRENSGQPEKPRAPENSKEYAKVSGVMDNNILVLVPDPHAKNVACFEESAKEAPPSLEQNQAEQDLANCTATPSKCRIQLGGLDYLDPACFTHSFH
Assay: flow cytometry on BaF3 cells stably transfected with rhesus monkey PRLR

binding: binds
B1: antibody HE06642 as IgG1 molecule (antibody, V domains shown)
VH: EVQLVESGGGLVQPGGSLRLSCAVSGFTFSSYGMSWVRQAPGKGLEWVATVSSGGTYTYYPDSVKGRFTISRDNSKNTLYLQMNSLRAEDTAVYYCARHRGNYYATYYYAMDYWGQGTLVTVSS
VL: DIVLTQSPDSLAVSLGERATINCKASKSVSTSGYTYMHWYQQKPGQPPKLLIYLASNRESGVPDRFSGSGSGTDFTLTISPVQAEDVATYYCQHSGELPPSFGQGTKLEIKR
